Results reported in PubChem BioAssay AID1347426 (Functional Genomics Laboratory (NCATS/FGL), 2020).
Screen size: about 31,000 sequences; about 1,400 (4.5%) were called active.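 How the source made its calls: active means median seed-adjusted z-score above 1 or below -1; inactive means the rest.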 The list shows a part of the results.

assay: Novel Modifiers of Survival Motor Neuron (SMN) Protein: Gene Identification via Genome-wide siRNA Screen; details: HEK293T SMN2-luciferase reporter, siRNA knockdown, 72 h; actives lie on both sides;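 further: luminescence tracks full-length SMN protein made from the SMN2 reporter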
In short: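 HEK293T cells stably carrying an SMN2 promoter/splicing cassette–luciferase reporter were reverse-transfected with 1 pmol siRNA per well (druggable-genome library, 3 siRNAs per gene) and grown 72 h at 37 °C. Luminescence, normalized to negative-control siRNA and log10-transformed, was scored as MAD.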

**Q.** With GGAUGUUCAGCGGUACCUATT against DNAH7 as the sequence, how does the median seed-adjusted z-score read?
**A.** inactive: 0.287

**Q.** Which median seed-adjusted z-score does the source give for CAGACUUUGUGCCUCGUUATT against CUL9 here?
**A.** inactive: 0.399

**Q.** For CCAACGUAGUGACCUAUUATT against STK39, which median seed-adjusted z-score is on record?
**A.** inactive: 0.232

**Q.** For CGAUUCGCAUUAGUGCACATT against MYO5C, which median seed-adjusted z-score is on record?
**A.** inactive: 0

**Q.** Which median seed-adjusted z-score does the source give for CCGUCAAAAUCAUCGAGAATT against MKNK1 here?
**A.** inactive: 0.221

**Q.** With GAAUAUUCUUGCAGAGUUUTT against WFDC5 as the sequence, how does the median seed-adjusted z-score read?
**A.** inactive: 0

**Q.** Which median seed-adjusted z-score does the source give for GGAUCAGGUGCACAUCAUATT against KCNK1 here?
**A.** inactive: 0.124

**Q.** With AAAUAAACCGUGUAUUUAUTT against ING1 as the sequence, how does the median seed-adjusted z-score read?
**A.** inactive: 0.121

**Q.** Which median seed-adjusted z-score does the source give for GCUCAGCCCUUACGAAACATT against ZNF606 here?
**A.** inactive: 0.118

**Q.** With CUGCUUCGGGUGAACCAUATT against DHRS13 as the sequence, how does the median seed-adjusted z-score read?
**A.** inactive: 0.192

**Q.** For AGUGGAAGCUCAGCACAUATT against PYCRL, which median seed-adjusted z-score is on record?
**A.** inactive: 0.498

**Q.** For UGAAGAUCCCGGACUCAUATT against PHF15, which median seed-adjusted z-score is on record?
**A.** inactive: 0

**Q.** With GCAAGGACCGGAACGAGAATT against RXRA as the sequence, how does the median seed-adjusted z-score read?
**A.** inactive: 0.304

**Q.** For ACAAGAUGACCAACACUAATT against ARHGAP1, which median seed-adjusted z-score is on record?
**A.** active: -1.14

**Q.** For GGAAGUAGGAAGCAUCAUUTT against PCBP1, which median seed-adjusted z-score is on record?
**A.** inactive: 0.124

**Q.** Which median seed-adjusted z-score does the source give for GCACUAGACUAAAGGAGGATT against TTC1 here?
**A.** inactive: 0.3

**Q.** For GGGAUCCUAUUGGAAGAUATT against ACBD5, which median seed-adjusted z-score is on record?
**A.** inactive: -0.118

**Q.** Which median seed-adjusted z-score does the source give for CCAAUCCAGCAGAUUCAAATT against NME2 here?
**A.** inactive: -0.0728

**Q.** For CCAUUGAUCUGACCCUGCATT against MAPK7, which median seed-adjusted z-score is on record?
**A.** inactive: -0.0118

**Q.** Which median seed-adjusted z-score does the source give for AGUCCAUCCUUAAGACUCATT against ZNF317 here?
**A.** inactive: 0.087

**Q.** For AUAACGAUCUUCAACAAGATT against CYP4F12, which median seed-adjusted z-score is on record?
**A.** inactive: -0.564

**Q.** Which median seed-adjusted z-score does the source give for GUAUACACCUUAAAUGAUATT against HPR here?
**A.** inactive: 0.237

**Q.** Which median seed-adjusted z-score does the source give for CGUCGUACGUGCUCAAGAATT against USP20 here?
**A.** inactive: -0.369

**Q.** For CGCACAUCAUGGACCAGUATT against MAN2B2, which median seed-adjusted z-score is on record?
**A.** inactive: 0.0555

**Q.** For ACUCCUACAUGACCCUGAATT against FOXA3, which median seed-adjusted z-score is on record?
**A.** inactive: 0.128

**Q.** For CCACUACGAGAGUCGAAAATT against ZMAT4, which median seed-adjusted z-score is on record?
**A.** inactive: -0.0468

**Q.** With GCACUGCGAGAUGAAGUAATT against KLHL10 as the sequence, how does the median seed-adjusted z-score read?
**A.** inactive: 0.0708

**Q.** With GGACCGUGUUCAACUCAGATT against TOM1 as the sequence, how does the median seed-adjusted z-score read?
**A.** inactive: 0.774

**Q.** Which median seed-adjusted z-score does the source give for GUAUGUUCCACAUAAUGAATT against CYP19A1 here?
**A.** inactive: -0.321

**Q.** Which median seed-adjusted z-score does the source give for GAAUUAAGAUGGGAAGAUATT against FOXD4L4 here?
**A.** inactive: -0.0372

**Q.** For GCUGCUAAACAAAUCAAUATT against RGS1, which median seed-adjusted z-score is on record?
**A.** inactive: 0.329

**Q.** For GAAUAUCGGCAGAGAGAUATT against RNF12, which median seed-adjusted z-score is on record?
**A.** inactive: 0.29

**Q.** Which median seed-adjusted z-score does the source give for CACAGUCGCUGGUCCUUAUTT against MSH5 here?
**A.** inactive: -0.444

**Q.** Which median seed-adjusted z-score does the source give for GAGAUUUCUUUAGACAAAATT against DRD5 here?
**A.** inactive: -0.18

**Q.** For AUGUCUUACCUAAAGAACUTT against AMY2B, which median seed-adjusted z-score is on record?
**A.** inactive: -0.564

**Q.** Which median seed-adjusted z-score does the source give for GGAGCACUGUAUUACAACATT against TMTC1 here?
**A.** inactive: -0.147

**Q.** For CCCAAAAUCAUAAAGCGAATT against ZNF343, which median seed-adjusted z-score is on record?
**A.** inactive: 0.0696

**Q.** Which median seed-adjusted z-score does the source give for CGUAAGAGCUUACAACACUTT against CNTN6 here?
**A.** inactive: 0

**Q.** With GGUGCUUUAUCACGAGUAUTT against SLC20A2 as the sequence, how does the median seed-adjusted z-score read?
**A.** inactive: -0.0546

**Q.** With GCACUUGUCAGACACCACUTT against BRSK2 as the sequence, how does the median seed-adjusted z-score read?
**A.** inactive: -0.12

**Q.** For GUAACAUGCCUGAUGGUUUTT against NOTCH2, which median seed-adjusted z-score is on record?
**A.** inactive: 0.000598

**Q.** With CCUUUAAGGUAGAGGAAGATT against NPM3 as the sequence, how does the median seed-adjusted z-score read?
**A.** inactive: 0.0417

**Q.** For GCACCGAACCCGUCUAUCATT against POU3F4, which median seed-adjusted z-score is on record?
**A.** inactive: -0.314

**Q.** With GGAUCAUUCUCAACGGGAUTT against KCNV2 as the sequence, how does the median seed-adjusted z-score read?
**A.** active: -1.13

**Q.** Which median seed-adjusted z-score does the source give for GCUUAACUCCAACACGCAATT against PLAU here?
**A.** inactive: 0.0765

**Q.** With CAAUGAAAAUGCGAUACGATT against CSF2RB as the sequence, how does the median seed-adjusted z-score read?
**A.** inactive: -0.454

**Q.** Which median seed-adjusted z-score does the source give for GCGGGUUCUUUGACGACAATT against SLC26A4 here?
**A.** inactive: 0.274

**Q.** For GGUCCUUCCUAUAUAGUAUTT against GPR155, which median seed-adjusted z-score is on record?
**A.** inactive: 0.0681

**Q.** Which median seed-adjusted z-score does the source give for CAACGAGUAUAAGACAGAATT against PITPNM2 here?
**A.** inactive: 0.275

**Q.** With GAAAUUGGAUUCUAAAGCATT against SYCP1 as the sequence, how does the median seed-adjusted z-score read?
**A.** inactive: -0.0197

**Q.** Which median seed-adjusted z-score does the source give for GACCGAAGAUUGCCGUUUATT against ZNF295 here?
**A.** inactive: 0.371

**Q.** For GGAUGUCGGCAACACGGAATT against MYBPC3, which median seed-adjusted z-score is on record?
**A.** inactive: 0.304

**Q.** For GUGUUGAACCGGUCAGGGATT against VAT1, which median seed-adjusted z-score is on record?
**A.** inactive: -0.744

**Q.** For GAUGCAUGUUUGUAAAAAUTT against KCNJ6, which median seed-adjusted z-score is on record?
**A.** active: -1.6

**Q.** For GGAGUUAGCACUAACAUAATT against NUP98, which median seed-adjusted z-score is on record?
**A.** inactive: 0.168

**Q.** Which median seed-adjusted z-score does the source give for GAGUGGACAUUGUCAUGGATT against VAT1 here?
**A.** inactive: -0.744

**Q.** Which median seed-adjusted z-score does the source give for GGACAUUGCCUAUACCUAUTT against NAALADL1 here?
**A.** inactive: -0.0444

**Q.** With GCUUACUAGUUUGAACGGATT against SPATA5 as the sequence, how does the median seed-adjusted z-score read?
**A.** active: -1.04

**Q.** With UGGUGAGAAUGUAUUUUGATT against ATAD3A as the sequence, how does the median seed-adjusted z-score read?
**A.** inactive: -0.283

**Q.** Which median seed-adjusted z-score does the source give for GUGAGAACUUUGACGAUUATT against PMP2 here?
**A.** inactive: 0.00618

**Q.** With GAGAUGUACUCAGCCCACATT against MGC29506 as the sequence, how does the median seed-adjusted z-score read?
**A.** inactive: 0

**Q.** With CGACAAUCUAACUUCCGUATT against CYTH3 as the sequence, how does the median seed-adjusted z-score read?
**A.** inactive: 0.196

**Q.** For CCUUCUUCUGGAUACCGAUTT against ABCA9, which median seed-adjusted z-score is on record?
**A.** inactive: -0.139

**Q.** With GGUUCACUAUAGUUGCGGATT against STAT1 as the sequence, how does the median seed-adjusted z-score read?
**A.** inactive: -0.0526

**Q.** With GAAACGCAAACGACAGAAATT against PHAX as the sequence, how does the median seed-adjusted z-score read?
**A.** inactive: -0.0716

**Q.** Which median seed-adjusted z-score does the source give for AGCCUUUCCUGGUAGUCAATT against KRT86 here?
**A.** inactive: -0.689

**Q.** Which median seed-adjusted z-score does the source give for GGUGAUCGGUAGCAACAAATT against PARP1 here?
**A.** inactive: -0.0913

**Q.** Which median seed-adjusted z-score does the source give for CCGUAUAAAUGUACCCUUUTT against ZNF263 here?
**A.** inactive: 0.397

**Q.** Which median seed-adjusted z-score does the source give for AAAUCUUACUGACCAUAAATT against ZNF117 here?
**A.** inactive: 0.616
